Results as given in patent US20250129170A1.
These are yes or no findings as the source states them, for the method shown. Some entries that bind do so weakly or less than the wild type.

By UniProt entry, the sequences of proteins in these tests, tags left out. Residues count along the entry.
UniProt P32927, residues 17-443: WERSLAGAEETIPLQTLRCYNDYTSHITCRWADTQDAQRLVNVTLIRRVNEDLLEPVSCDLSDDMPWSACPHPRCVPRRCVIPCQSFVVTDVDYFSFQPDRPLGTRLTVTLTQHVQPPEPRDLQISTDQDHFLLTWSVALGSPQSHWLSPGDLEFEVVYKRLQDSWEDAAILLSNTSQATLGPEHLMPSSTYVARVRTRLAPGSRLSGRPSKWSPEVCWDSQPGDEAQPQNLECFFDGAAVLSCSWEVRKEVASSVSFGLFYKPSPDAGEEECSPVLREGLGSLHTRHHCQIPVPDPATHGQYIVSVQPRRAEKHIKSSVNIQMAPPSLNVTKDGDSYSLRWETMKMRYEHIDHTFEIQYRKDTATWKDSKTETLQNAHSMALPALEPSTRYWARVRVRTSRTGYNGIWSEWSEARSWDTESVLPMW

Experiments:
[1] = target: hCD131-Fc (IME021, inhouse) (human) (UniProt P32927); assay: B-cell sorting with labelled hCD131-Fc, then single-cell sequencing
[2] = target: hCD131-Fc (IME021, inhouse) (human) (UniProt P32927); assay: B-cell sorting, labelled hEPOR-Fc and hCD131-Fc

Row | Binder | binding [1] | binding [2]
1 | anti-CD131 antibody clonotype8 (Table 6) (antibody, V domains shown) VH: QLQLQESGPGLVKPSETLSLTCTVSGGSISSSSYYWGWIRQPPGKGLEWIGSIYYSGSTYYNPSLKSRVTISVDTSKNQFSLKLSSVTAADTAVYYCASLTGDRFDYWGQGTLVTVSS VL: QSALTQPASVSGSPGQSITISCTGTSSDVGGYNYVSWYQQHPGKAPKLMIYEVSNRPSGVSNRFSGSKSGNTASLTISGLQAEDEADYYCSSYTSSSTVVFGGGTKLTVL | binds | –
2 | anti-CD131 antibody clonotype14 (Table 6) (antibody, V domains shown) VH: EVQLVESGGGVVRPGGSLRLSCAASGFTFDDYGMSWVRQAPGKGLEWVSGINWNGGSTGYADSVKGRFTISRDNAKNSLYLQMNSLRAEDTALYYCARERLTIFGVVNYYMDVWGKGTTVTVSS VL: QSVLTQPPSVSGAPGQRVTISCTGSSSNIGAGYDVHWYQQLPGTAPKLLIYGNSNRPSGVPDRFSGSKSGTSASLAITGLQAEDEADYYCQSYDSSLSGWVFGGGTKLTVL | binds | –
3 | anti-CD131 antibody clonotype15 (Table 6) (antibody, V domains shown) VH: EVQLVESGGGLVQPGGSLRLSCAASGFTFSSYSMNWVRQAPGKGLEWVSYISSSSSTIYYADSVKGRFTISRDNAKNSLYLQMNSLRDEDTAVYYCARDGWDYWGQGTLVTVSS VL: SYELTQPSSVSVSPGQTARITCSGDVLAKKYARWFQQKPGQAPVLVIYKDSERPSGIPERFSGSSSGTTVTLTISGAQVEDEADYYCYSAADNNRVFGGGTKLTVL | binds | –
4 | anti-CD131 antibody clonotype16 (Table 6) (antibody, V domains shown) VH: EVQLVESGGGLVQPGGSLKLSCAASGFTFSSSDMHWVRQTTGKGLEWVSAIYTTGDTYYPGSVKGRFTISRENAKNSLYLQMNSLRAGDTAVYYCARGYSGSYYGDFDYWGQGTLVTVSS VL: SYELTQPPSVSVSPGQTARITCSGDALPKKYAYWYQQKSGQAPVLVIYEDSKRPSGIPERFSGSSSGTMATLTISGAQVEDEADYYCYSTDSSGNRVFGGGTKLTVL | binds | –
5 | anti-CD131 antibody clonotype25 (Table 6) (antibody, V domains shown) VH: QVQLVQSGAEVKKPGASVKVSCKASGYTFTSYGISWVRQAPGQGLEWMGWISAYNGNTNYAQKLQGRVTMTTDTSTSTAYMELRSLRSDDTAVYYCARENSGSYYWFDPWGQGTLVTVSS VL: QSALTQPPSASGSPGQSVTISCTGTSSDVGGYNYVSWYQQHPGKAPKLMIYEVSKRPSGVPDRFSGSKSGNTASLTVSGLQAEDEADYYCSSYAGSNNVVFGGGTKLTVL | binds | –
6 | anti-CD131 antibody clonotype36 (Table 6) (antibody, V domains shown) VH: QVQLQQWGAGLLKPSETLSLTCAVYGGSFSGYYWSWIRQPPGKGLEWIGEINHSGSTNYNPSLKSRVTISVDTSKNQFSLKLSSVTAADTAVYYCAREGLLVGATLDAFDIWGQGTMVTVSS VL: SSELTQDPAVSVALGQTVRITCQGDSLRSYYASWYQQKPGQAPVLVIYGKNNRPSGIPDRFSGSSSGNTASLTITGAQAEDEADYYCNSRDSSGNHLVFGTGTKVTVL | binds | –
7 | anti-CD131 antibody clonotype45 (Table 6) (antibody, V domains shown) VH: QVQLQQWGAGLLKPSETLSLTCAVYGGSFSGYYWSWIRQPPGKGLEWIGEINHSGSTNYNPSLKSRVTISVDTSKNQFSLKLSSVTAADTAVYYCARTSLAAADFDYWGQGTLVTVSS VL: QSALTQPPSASGSPGQSVTISCTGTSSDVGGYNYVSWYQQHPGKAPKLMIYEVSKRPSGVPDRFSGSKSGNTASLTVSGLQAEDEADYYCSSYAGSNNYVFGTGTKVTVL | binds | –
8 | anti-CD131 antibody clonotype52 (Table 6) (antibody, V domains shown) VH: EVQLVESGGGLVKPGGSLRLSCIASGFTFSTYSMNWVRQAPGKGLEWVSSISGSSSYIYYSDSVKGRFTISRDNAKNSLYLQLNSLRAEDTAVYYCASHWGHFDYWGRGTLVTVSS VL: SYELTQPLSVSVALGQTARITCGGNNIGSKNVHWYQQKPGQAPVLVIYRDSNRPSGIPERFSGSNSGNTATLTISRAQAGDEADYYCQVWDSSTVVFGGGTKLTVL | binds | –
9 | anti-CD131 antibody clonotype115 (Table 6) (antibody, V domains shown) VH: EVQLVESGGGLVQPGGSLRLSCAASGFTFSSYDMHWVRQATGKGLEWVSAIGTAGDTYYPGSVKGRFTISRENAKNSLYLQMNSLRAGDTAVYYCARDRTLDYWGQGTLVTVSS VL: SYELTQPPSVSVSPGQTARITCSGDALPKKYAYWYQQKSGQAPVLVIYEDSKRPSGIPERFSGSSSGTMATLTISGAQVEDEADYYCYSTDSSGNHWVFGGGTKLTVL | binds | –
10 | anti-CD131 antibody clonotype116 (Table 6) (antibody, V domains shown) VH: QVQLVQSGAEAKKPGASVKVSCMASGYTFTTYGISWVRQAPGQGLEWMGWISAYNGNTKYAQKLQGRVTMTTDTSTRTAYMELRSLRSDDTAVYYCARQIGDYWGQGTLVTVSS VL: QSALTQPPSASGSPGQSVTISCTGTSSDVGGYNYVSWYQQHPGKAPKLMIYEVIKRPSGVPDRFSGSKSGNTASLTVSGLQAEDEADYYCSAYAGSNNVVFGGGTQLTVL | binds | –
11 | anti-CD131 antibody clonotype123 (Table 6) (antibody, V domains shown) VH: EVQLVESGGGLVKPGGSLRLSCAASGFTFSDAWMYWDRQAPGKGLEWVGRIKSKTDGGTTDYAAPVKGRFTISRDDSKNTLYLQMNSLKTEDTAVYYCRADMDVWGKGTTVTVSS VL: SYELTQPPSVSVSPGQTARITCSGDALPKKYAYWYQQKSGQAPVLVIYEDSKRPSGIPERFSGSSSGTMATLTISGAQVEDEADYYCYSIDSSGNHRVFGGGTKLTVL | binds | –
12 | anti-CD131 antibody clonotype126 (Table 6) (antibody, V domains shown) VH: QVQLVQSGAEVKKPGASVKVSCKTSGYTFTSFGISWVRQAPGQGLEWMGWISAYNDNINYAQKLQDRVTMTTDTSTSTACMELRSLRSDDTAVYFCARGASFDFWGQGTLVTVSS VL: QSALTQPASVSGSPGQSITISCTGTSSDVGGYNYVSWYQQHPGKAPKLMIYEVSDRPSGVSNRFSGSKSGNTASLTISGLQAEDEADYYCSSYTRSSTCVFGGGTKLTVL | binds | –
13 | anti-CD131 antibody clonotype127 (Table 6) (antibody, V domains shown) VH: EVQLVESGGGLVQPGGSLKLSCAASGFTFSGSAMHWVRQASGKGLEWVGRIRSKANSYATAYAASVKGRFTISRDDSKNTAYLQMNSLKTEDTAVYYCTGPFDYWGQGTLVTVSS VL: QSALTQPASVSGSPGQSITISCTGTSSDVGGYNYVSWYQQHPGKAPKLMIYEVSNRPSGVSNRFSGSKSGNTASLTISGLQAEDEADYYCSSYTSSSTWVFGGGTKLTVL | binds | –
14 | anti-CD131 antibody clonotype128 (Table 6) (antibody, V domains shown) VH: EVQLVESGGGLIQPGGSLRLSCAASGFTVSSNYMSWVRQAPGKGLEWVSVIYSGGSTYYADSVKGRFTISRDNSKNTLYLQMNSLRAEDTAVYYCARSFDAFDIWGQGTMVTVSS VL: QSALTQPASVSGSPGQSITISCTGTSSDVGGYNYVSWYQQHPGKAPKLMIYDVSKRPSGVSNRFSGSKSGNTASLTISGLQAEDEADYYCCSYAGSSTFVVFGGGTKLTVL | binds | –
15 | anti-CD131 antibody clonotype132 (Table 6) (antibody, V domains shown) VH: EVQLVESGGGLVQPGGSLRLSCAASGFTFSSYDMHWVRQATGKGLEWVSAIGTAGDTYYPGSVKGRFTISRENAKNSLYLQMNSLRAGDTAVYYCARWGTGGFDYWGQGTLVTVSS VL: SYELTQPPSVSVSPGQTARITCSADALPKQYAYWYQQKPGQAPVLVIYKDSERPSGIPERFSGSSSGTTVTLTISGVQAEDEADYYCQSADSSGTWVFGGGTKLTVL | binds | –
16 | anti-CD131 antibody clonotype140 (Table 6) (antibody, V domains shown) VH: QVQLVESGGGVVQPGRSLRLSCAASGFPFSNSGMHWVRQAPGKGLEWVTIISYDGNSKYYADSVKGRFTISRDNSKNTLYLQMNSLRTEDTAVYYCARGELGDFDYWGRGTLVTVSS VL: SSELTQDPAVSVALGQTVRITCQGDSLRSYYASWYQQKPGQAPVLVIYGKNNRPSGIPDRFSGSSSGNTASLTITGAQAEDEADYYCNSRDSSGNHLVFGGGTKLTVL | binds | –
17 | anti-CD131 antibody clonotype158 (Table 6) (antibody, V domains shown) VH: EVQLVESGGGVVRPGGSLRLSCAASGFTFDDYGMSWVRQAPGKGLEWVSGINWNGGSTGYADSVKGRFTISRDNAKNSLYLQMNSLRAEDTALYYCAREGGGWVFDYWGQGTLVTVSS VL: SSELTQDPAVSVALGQTVRITCQGDSLRSYYASWYQQKPGQAPVLVIYGKNNRPSGIPDRFSGSSSGNTASLTITGAQAEDEADYYCNSRDSSGNHWVFGGGTKLTVL | binds | –
18 | anti-CD131 antibody clonotype160 (Table 6) (antibody, V domains shown) VH: QVQLVQSGAEVKKPGASVQVSCKASGYTFTGYYIHWVRQAPGQGLEWMGWINPNSGGTNYAQKFQGRVIMTRDTSISIAYIELSRLRSDDTAVYYCARPYNWNSFDYWGQGTLVTVSS VL: QSALTQPASVSGSLGQSITISCTGTSSDVGGYNYVSWYQHHPGKAPKIMIYDVSNRPSGVSNRFSASKSGNTASLTISGLQTEDEADYYCSSYTTSSTWVFGGGTNLTVL | binds | –
19 | clonotype305 (EPOR/CD131 binder, Table 8) (antibody, V domains shown) VH: EVHLVESGGGLVQPGRSLRLSCAASGFTFDEYAMHWVRQVPGKGLEWVSGISWNSGSIGYADSVKGRFTISRDNAKNSLYLQMNSLRAEDTALYYCAKDIFTGRAGYFDYWGQGTLVTVSS VL: QSVLTQPPSVSGAPGQRVTISCTGSSSNIGAGYDVHWYQQLPGTAPKLLIYGNSNRPSGVPDRFSGSKSGTSASLAITGLQAEDEADYYCQSYDSSLSGWVFGGGTKLTVL | – | binds
20 | clonotype307 (EPOR/CD131 binder, Table 8) (antibody, V domains shown) VH: QITLKESGPTLVKPTQTLTLTCTFSGFSISTSGVGVGWIRQPPGKALEWLAFIFWNDDKRYSPSLKSRLTITKDTSKNQVVLTMTNMDPVDTATYYCTHTEYGSSWSVDYWGQGTLVTVSS VL: QAVLTQPASLSASPGASASLTCTLRSGINVGTSRIYWYQQKPGSPPQYLLRYKSDSDKHQDSGVPSRFSGSKDASANAGILLISGLQSEDEADYYCMIWHSSAVVFGGGTKLTVL | – | binds
21 | clonotype308 (EPOR/CD131 binder, Table 8) (antibody, V domains shown) VH: EVQLVESGGGVVRPGGSLRLSCAASGFTFDDYGMSWVRQAPGKGLEWVSGINWNGGSTGYADSVKGRFTISRDNAKNSLYLQMNSLRAEDTALYYCARHFDWLLSNAFDIWGQGTMVTVSS VL: QAVLTQPASLSASPGASASLTCTLRSGINVGTYRIYWYQQKPGSPPQYLLRYKSDSDKQQGSGVPSRFSGSKDASANAGILLISGLQSEDEADYYCMIWHSSASVVFGGGTKLTVL | – | binds
22 | clonotype309 (EPOR/CD131 binder, Table 8) (antibody, V domains shown) VH: QVQLVQSGAEVKKPGASVKVSCKASGYTFTSYDINWVRQATGQGLEWMGWMNPNSGNTGYAQKFQGRVTMTRNTSISTAYMELSSLRSEDTAVYYCVRRITVVRGVISLDYWGQGTLVTVSS VL: SYELTQPPSVSVSPGQTAIITCSGAKLGDKYACWYQKKPGQSPVMVIYQDRKRPSGIPERFSGSNSGNTATLTISGTQAMDEADYYCQAWDSSTAVFGGGTKLTVL | – | binds
